Results on two molecules are retold here after article doi:10.1101/572156.

No constants are given. Whether binding was seen depends on the method and setting. Binding seen in cells or lysates may run through a third protein. These calls come from enrichment with a bait or labelling near it, and not all partners need be listed. Sequences can lack the tags named with a protein.

The target of assay [1] is T1, FLAG-tagged DND1 1-235 dsRBD truncation mutant (human) (UniProt Q8IYX4).
T1 sequence: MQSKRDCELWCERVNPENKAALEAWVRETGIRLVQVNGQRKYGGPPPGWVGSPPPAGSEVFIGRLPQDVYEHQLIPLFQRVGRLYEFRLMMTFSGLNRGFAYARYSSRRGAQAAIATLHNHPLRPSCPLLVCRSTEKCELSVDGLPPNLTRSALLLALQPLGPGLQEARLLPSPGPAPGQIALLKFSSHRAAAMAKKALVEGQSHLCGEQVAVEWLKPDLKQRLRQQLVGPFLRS
Nature of the assay: affinity purification with mass spectrometry.

Assay [2] concerns the target T2, FLAG-tagged DND1 wild-type (full-length human Dead End, 1-353) (human) (UniProt Q8IYX4).
T2 sequence: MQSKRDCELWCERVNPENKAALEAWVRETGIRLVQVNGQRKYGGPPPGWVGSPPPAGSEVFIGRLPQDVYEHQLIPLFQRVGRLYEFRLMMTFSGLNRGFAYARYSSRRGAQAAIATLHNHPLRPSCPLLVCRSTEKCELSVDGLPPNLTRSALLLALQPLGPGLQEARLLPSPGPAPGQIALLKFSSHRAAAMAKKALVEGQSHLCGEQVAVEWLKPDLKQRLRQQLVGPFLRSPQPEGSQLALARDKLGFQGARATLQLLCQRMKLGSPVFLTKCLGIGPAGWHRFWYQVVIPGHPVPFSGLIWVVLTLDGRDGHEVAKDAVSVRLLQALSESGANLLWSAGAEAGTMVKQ
Nature of the assay: affinity purification with mass spectrometry.

B1: TRAP1 (protein, UniProt Q12931 60-704)
chain: STQTAEDKEEPLHSIISSTESVQGSTSKHEFQAETKKLLDIVARSLYSEKEVFIRELISNASDALEKLRHKLVSDGQALPEMEIHLQTNAEKGTITIQDTGIGMTQEELVSNLGTIARSGSKAFLDALQNQAEASSKIIGQFGVGFYSAFMVADRVEVYSRSAAPGSLGYQWLSDGSGVFEIAEASGVRTGTKIIIHLKSDCKEFSSEARVRDVVTKYSNFVSFPLYLNGRRMNTLQAIWMMDPKDVREWQHEEFYRYVAQAHDKPRYTLHYKTDAPLNIRSIFYVPDMKPSMFDVSRELGSSVALYSRKVLIQTKATDILPKWLRFIRGVVDSEDIPLNLSRELLQESALIRKLRDVLQQRLIKFFIDQSKKDAEKYAKFFEDYGLFMREGIVTATEQEVKEDIAKLLRYESSALPSGQLTSLSEYASRMRAGTRNIYYLCAPNRHLAEHSPYYEAMKKKDTEVLFCFEQFDELTLLHLREFDKKKLISVETDIVVDHYKEEKFEDRSPAAECLSEKETEELMAWMRNVLGSRVTNVKVTLRLDTHPAMVTVLEMGAARHFLRMQQLAKTQEERAQLLQPTLEINPRHALIKKLNQLRASEPGLAQLLVDQIYENAMIAAGLVDDPRAMVGRLNELLVKALERH
For the molecule B1, the binding result in assay [1] and in assay [2] was “binds” in each case.

B2: MATR3 (protein, UniProt P43243 1-847)
chain: MSKSFQQSSLSRDSQGHGRDLSAAGIGLLAAATQSLSMPASLGRMNQGTARLASLMNLGMSSSLNQQGAHSALSSASTSSHNLQSIFNIGSRGPLPLSSQHRGDADQASNILASFGLSARDLDELSRYPEDKITPENLPQILLQLKRRRTEEGPTLSYGRDGRSATREPPYRVPRDDWEEKRHFRRDSFDDRGPSLNPVLDYDHGSRSQESGYYDRMDYEDDRLRDGERCRDDSFFGETSHNYHKFDSEYERMGRGPGPLQERSLFEKKRGAPPSSNIEDFHGLLPKGYPHLCSICDLPVHSNKEWSQHINGASHSRRCQLLLEIYPEWNPDNDTGHTMGDPFMLQQSTNPAPGILGPPPPSFHLGGPAVGPRGNLGAGNGNLQGPRHMQKGRVETSRVVHIMDFQRGKNLRYQLLQLVEPFGVISNHLILNKINEAFIEMATTEDAQAAVDYYTTTPALVFGKPVRVHLSQKYKRIKKPEGKPDQKFDQKQELGRVIHLSNLPHSGYSDSAVLKLAEPYGKIKNYILMRMKSQAFIEMETREDAMAMVDHCLKKALWFQGRCVKVDLSEKYKKLVLRIPNRGIDLLKKDKSRKRSYSPDGKESPSDKKSKTDGSQKTESSTEGKEQEEKSGEDGEKDTKDDQTEQEPNMLLESEDELLVDEEEAAALLESGSSVGDETDLANLGDVASDGKKEPSDKAVKKDGSASAAAKKKLKKVDKIEELDQENEAALENGIKNEENTEPGAESSENADDPNKDTSENADGQSDENKDDYTIPDEYRIGPYQPNVPVGIDYVIPKTGFYCKLCSLFYTNEEVAKNTHCSSLPHYQKLKKFLNKLAEERRQKKET
As for B2, the binding entry in assay [1] and in assay [2] was “binds” in each case.
